From PMC8396670
Results are given in words; binding and its absence hold for the method and conditions named. In cells and extracts the contact can be indirect.

The chains behind the UniProt entries cited, without tags or fusion partners.
UniProt P63073: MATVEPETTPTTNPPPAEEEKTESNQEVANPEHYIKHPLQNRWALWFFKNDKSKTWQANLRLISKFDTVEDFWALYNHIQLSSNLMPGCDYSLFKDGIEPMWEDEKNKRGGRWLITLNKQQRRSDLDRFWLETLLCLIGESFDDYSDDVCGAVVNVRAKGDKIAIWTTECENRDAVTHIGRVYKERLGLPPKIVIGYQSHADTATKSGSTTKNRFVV
UniProt Q80U58: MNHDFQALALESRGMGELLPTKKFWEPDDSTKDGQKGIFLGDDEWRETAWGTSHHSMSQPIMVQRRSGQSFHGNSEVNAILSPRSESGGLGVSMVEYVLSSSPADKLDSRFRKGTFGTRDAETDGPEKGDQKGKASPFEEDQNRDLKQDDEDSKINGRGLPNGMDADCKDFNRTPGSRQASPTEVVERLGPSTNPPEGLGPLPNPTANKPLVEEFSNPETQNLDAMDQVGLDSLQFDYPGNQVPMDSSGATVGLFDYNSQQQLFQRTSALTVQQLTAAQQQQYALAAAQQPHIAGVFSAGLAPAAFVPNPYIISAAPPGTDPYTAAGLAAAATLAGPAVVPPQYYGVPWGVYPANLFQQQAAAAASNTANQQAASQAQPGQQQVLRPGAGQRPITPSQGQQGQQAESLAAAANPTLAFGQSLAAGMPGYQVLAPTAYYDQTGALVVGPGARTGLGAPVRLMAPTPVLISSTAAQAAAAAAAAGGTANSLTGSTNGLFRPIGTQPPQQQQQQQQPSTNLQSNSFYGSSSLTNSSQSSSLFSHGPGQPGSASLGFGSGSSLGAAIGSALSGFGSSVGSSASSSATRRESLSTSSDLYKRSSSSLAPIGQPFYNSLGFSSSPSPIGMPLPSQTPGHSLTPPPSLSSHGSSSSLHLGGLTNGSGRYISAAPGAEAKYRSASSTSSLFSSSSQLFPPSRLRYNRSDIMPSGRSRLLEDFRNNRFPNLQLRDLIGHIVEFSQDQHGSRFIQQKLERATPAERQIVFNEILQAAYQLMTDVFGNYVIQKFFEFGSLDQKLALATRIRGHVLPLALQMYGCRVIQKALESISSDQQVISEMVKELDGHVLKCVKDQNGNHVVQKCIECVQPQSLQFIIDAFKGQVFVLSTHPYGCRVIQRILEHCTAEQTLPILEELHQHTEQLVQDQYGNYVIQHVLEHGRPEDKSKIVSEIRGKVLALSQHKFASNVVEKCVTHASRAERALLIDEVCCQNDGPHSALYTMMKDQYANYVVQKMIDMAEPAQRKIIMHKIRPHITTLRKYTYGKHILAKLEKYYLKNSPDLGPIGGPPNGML

Target: eukaryotic initiation factor 4E (eIF4E) (mouse (endogenous in brain)) (UniProt P63073)
Experiment: pull-down; m7GTP beads (agarose beads as control) incubated with precleared S20 lysate of P21 mouse brain in brain extraction buffer with 100 µM GTP as competitor, 1 h at 4 °C; three washes; eluate blotted for eIF4E, PABPC1 and Pum2

binding: no binding
Substance: Pumilio2 (Pum2) (from UniProt Q80U58 1-1066)
